No constants are given. Whether binding was seen depends on the method and setting. In cells and extracts the contact can be indirect. Some results given as binding are weak or reduced against the parent protein; the word gives no strength.
target: Myc-tagged Gsk3β (glycogen synthase kinase-3β) (UniProt Q9WV60); test: co-IP; lysates of cells co-expressing HA-Jak1/2 and Myc-Gsk3β (C3H10T1/2 by the text, 293 cells by the legend); precipitated with a Gsk3β antibody, IgG1 as control; western blot

Chains of the proteins cited; added tags and fusions are not shown.
UniProt Q9WV60: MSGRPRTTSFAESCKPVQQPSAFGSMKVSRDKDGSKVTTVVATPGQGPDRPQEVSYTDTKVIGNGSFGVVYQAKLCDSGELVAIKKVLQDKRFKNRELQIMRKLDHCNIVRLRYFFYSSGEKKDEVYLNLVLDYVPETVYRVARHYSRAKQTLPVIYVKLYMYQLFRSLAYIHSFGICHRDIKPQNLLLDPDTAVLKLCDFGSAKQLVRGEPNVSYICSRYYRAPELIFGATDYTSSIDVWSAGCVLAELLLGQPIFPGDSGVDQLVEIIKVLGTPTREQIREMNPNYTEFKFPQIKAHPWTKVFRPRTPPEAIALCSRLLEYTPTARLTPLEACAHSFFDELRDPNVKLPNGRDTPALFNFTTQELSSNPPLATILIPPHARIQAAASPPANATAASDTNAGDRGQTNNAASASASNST
UniProt Q62120: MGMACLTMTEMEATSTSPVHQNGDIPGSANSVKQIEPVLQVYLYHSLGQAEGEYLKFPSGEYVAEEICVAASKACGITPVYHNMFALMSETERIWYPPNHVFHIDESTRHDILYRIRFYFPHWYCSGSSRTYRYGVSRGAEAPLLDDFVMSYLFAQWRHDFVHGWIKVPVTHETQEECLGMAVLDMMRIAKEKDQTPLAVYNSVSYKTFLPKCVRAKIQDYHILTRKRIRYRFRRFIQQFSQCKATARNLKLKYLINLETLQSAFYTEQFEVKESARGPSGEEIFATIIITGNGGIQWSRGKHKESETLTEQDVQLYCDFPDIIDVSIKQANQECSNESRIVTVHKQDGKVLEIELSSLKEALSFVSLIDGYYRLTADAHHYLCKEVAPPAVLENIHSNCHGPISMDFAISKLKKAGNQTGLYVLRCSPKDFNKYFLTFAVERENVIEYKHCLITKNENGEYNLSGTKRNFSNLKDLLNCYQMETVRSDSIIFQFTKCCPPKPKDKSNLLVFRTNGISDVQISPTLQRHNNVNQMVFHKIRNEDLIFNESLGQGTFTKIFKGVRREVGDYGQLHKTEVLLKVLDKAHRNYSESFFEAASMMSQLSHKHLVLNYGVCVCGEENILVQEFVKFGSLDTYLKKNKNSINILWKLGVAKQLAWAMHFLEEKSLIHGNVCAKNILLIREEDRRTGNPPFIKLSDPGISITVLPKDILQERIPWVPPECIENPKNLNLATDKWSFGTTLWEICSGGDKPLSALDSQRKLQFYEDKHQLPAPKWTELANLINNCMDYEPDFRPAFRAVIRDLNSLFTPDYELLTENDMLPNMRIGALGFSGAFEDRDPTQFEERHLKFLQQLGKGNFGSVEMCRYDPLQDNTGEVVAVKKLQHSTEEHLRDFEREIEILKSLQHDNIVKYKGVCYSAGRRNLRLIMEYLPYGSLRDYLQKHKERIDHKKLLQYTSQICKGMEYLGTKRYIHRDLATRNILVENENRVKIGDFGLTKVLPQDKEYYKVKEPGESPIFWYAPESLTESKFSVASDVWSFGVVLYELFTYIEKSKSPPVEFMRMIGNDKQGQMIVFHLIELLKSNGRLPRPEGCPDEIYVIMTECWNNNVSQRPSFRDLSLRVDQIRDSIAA
UniProt P70336: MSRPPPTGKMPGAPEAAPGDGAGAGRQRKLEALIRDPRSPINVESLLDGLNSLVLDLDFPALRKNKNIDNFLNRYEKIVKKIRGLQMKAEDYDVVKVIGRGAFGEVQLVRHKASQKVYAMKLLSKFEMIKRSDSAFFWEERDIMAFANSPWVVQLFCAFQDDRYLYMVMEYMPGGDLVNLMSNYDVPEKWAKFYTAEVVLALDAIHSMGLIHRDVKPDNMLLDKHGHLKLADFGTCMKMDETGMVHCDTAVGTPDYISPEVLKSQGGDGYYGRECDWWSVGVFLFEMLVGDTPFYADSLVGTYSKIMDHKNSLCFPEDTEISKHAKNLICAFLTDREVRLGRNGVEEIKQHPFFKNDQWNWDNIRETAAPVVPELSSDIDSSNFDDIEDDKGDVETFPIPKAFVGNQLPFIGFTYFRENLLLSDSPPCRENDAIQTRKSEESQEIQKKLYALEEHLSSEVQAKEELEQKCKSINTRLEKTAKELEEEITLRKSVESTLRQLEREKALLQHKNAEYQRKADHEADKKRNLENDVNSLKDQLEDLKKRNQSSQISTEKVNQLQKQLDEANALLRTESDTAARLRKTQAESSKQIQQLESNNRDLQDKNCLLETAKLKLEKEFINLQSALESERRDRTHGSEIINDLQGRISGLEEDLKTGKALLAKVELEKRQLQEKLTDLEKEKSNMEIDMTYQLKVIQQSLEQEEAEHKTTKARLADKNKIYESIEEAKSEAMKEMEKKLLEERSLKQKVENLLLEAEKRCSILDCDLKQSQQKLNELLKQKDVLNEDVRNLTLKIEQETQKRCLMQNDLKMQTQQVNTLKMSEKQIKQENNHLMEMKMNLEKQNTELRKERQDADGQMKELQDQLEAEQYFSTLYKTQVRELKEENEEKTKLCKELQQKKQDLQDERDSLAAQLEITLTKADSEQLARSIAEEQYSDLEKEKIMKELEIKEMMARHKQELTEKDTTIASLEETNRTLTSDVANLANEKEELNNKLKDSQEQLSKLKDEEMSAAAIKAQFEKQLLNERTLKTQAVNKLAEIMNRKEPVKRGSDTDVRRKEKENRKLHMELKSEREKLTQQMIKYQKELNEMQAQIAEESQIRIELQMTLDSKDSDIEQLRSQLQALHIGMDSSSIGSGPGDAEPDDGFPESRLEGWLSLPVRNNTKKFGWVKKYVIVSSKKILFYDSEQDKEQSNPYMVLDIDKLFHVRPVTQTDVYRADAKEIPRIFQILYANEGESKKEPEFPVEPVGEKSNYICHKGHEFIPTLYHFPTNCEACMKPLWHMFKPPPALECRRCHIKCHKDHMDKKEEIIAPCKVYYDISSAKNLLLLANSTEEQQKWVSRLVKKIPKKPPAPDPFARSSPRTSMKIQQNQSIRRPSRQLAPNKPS
UniProt P52332: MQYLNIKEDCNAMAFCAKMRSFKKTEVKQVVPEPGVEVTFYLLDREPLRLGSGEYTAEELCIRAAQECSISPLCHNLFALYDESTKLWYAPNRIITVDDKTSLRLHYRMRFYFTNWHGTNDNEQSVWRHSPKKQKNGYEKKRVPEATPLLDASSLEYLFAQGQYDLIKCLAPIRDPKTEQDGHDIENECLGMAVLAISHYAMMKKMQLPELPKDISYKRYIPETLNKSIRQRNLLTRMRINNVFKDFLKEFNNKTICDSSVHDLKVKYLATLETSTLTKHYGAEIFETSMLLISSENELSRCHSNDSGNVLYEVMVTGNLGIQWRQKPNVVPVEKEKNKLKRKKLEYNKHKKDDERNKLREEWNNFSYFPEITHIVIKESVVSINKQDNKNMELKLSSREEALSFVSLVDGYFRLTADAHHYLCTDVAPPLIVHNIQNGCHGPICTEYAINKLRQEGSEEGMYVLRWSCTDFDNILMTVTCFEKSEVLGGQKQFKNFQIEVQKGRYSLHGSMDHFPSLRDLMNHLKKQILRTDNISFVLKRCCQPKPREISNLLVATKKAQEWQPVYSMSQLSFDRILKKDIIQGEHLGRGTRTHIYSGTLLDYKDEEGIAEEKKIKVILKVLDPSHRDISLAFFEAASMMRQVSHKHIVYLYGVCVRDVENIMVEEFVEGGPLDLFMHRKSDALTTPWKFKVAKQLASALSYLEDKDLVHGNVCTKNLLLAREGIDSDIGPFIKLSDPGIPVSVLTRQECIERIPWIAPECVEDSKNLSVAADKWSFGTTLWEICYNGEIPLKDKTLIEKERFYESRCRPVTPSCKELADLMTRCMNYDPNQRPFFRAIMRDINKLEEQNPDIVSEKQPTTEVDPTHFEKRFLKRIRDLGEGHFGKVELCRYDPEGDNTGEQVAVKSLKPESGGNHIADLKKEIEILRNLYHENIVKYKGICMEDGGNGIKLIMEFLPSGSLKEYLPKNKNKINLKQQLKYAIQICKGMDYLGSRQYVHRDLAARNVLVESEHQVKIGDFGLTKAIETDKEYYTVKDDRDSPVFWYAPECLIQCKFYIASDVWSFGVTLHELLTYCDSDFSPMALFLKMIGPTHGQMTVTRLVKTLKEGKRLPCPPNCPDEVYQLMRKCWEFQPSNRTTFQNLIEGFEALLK

Substance	binding
HA-tagged Jak2 (Janus kinase 2) (from UniProt Q62120 1-1132) (enzyme)	binds
endogenous Rock2 (Rho kinase 2) (from UniProt P70336 1-1388) (enzyme)	binds
HA-tagged Jak1 (Janus kinase 1) (from UniProt P52332 1-1153) (enzyme)	binds

Source: paper PMC7925793
